Results reported in PubChem BioAssay AID330 (DTP/NCI, 2004).
The list is a part of this screen's results and no random one: it gathers tests that were run many times, whatever their T/C, doses with no T/C, and many T/C values between a quarter and a half above the control. Further doses and runs are listed elsewhere. T/C is the treated group as % of the vehicle group. Some doses have a count of surviving animals in place of a T/C: the source holds a T/C of zero for them, seemingly a mark for toxic or unscored doses. Some survivor counts are full or nearly so, which does not show that the dose was tolerated: survival well below the control is almost never listed, so the zero probably covers shortened survival too. Survivors were counted at the toxicity check, usually on the fifth day, unless a day is given; later deaths do not show. Schedules are NCI's codes, taken here to give the interval after Q, in days (D) or hours (H), and the number of doses after X. Some entries hold several experiments; the results are listed from low to high. For survival time, this PubChem deposit counts one and a half times the control or more as active, and values a quarter to a half above the control carry no call in these data; other NCI protocols may use other cut-offs. Some T/C values are followed by the survivors on the day toxicity was checked, most often the fifth; where none is given, no animal had died by that day.

Test system: P388 leukemia ip, CD2F1 mice, survival T/C
Experiment: NCI In Vivo Anticancer Drug Screen. Data for tumor model P388 Leukemia (intraperitoneal) in CD2F1 (CDF1) mice
Conditions: T/C endpoint: median survival time, higher T/C = longer survival
[1] = dose: 12.5 mg/kg/injection, schedule: Q01DX005 (ip), vehicle: Klucel (hydroxypropylcellulose) (HPC)
[2] = dose: 50.0 mg/kg/injection, schedule: Q01DX005 (ip), vehicle: Klucel (hydroxypropylcellulose) (HPC)
[3] = dose: 100.0 mg/kg/injection, schedule: Q01DX005 (ip), vehicle: Klucel (hydroxypropylcellulose) (HPC)
[4] = dose: 200.0 mg/kg/injection, schedule: Q01DX005 (ip), vehicle: saline with Tween-80
[5] = dose: 60.0 mg/kg/injection, schedule: Q01DX005 (ip), vehicle: saline with Tween-80
[6] = dose: 50.0 mg/kg/injection, schedule: Q01DX005 (ip), vehicle: saline with Tween-80
[7] = dose: 100.0 mg/kg/injection, schedule: Q01DX005 (ip), vehicle: saline with Tween-80
[8] = dose: 100.0 mg/kg/injection, schedule: Q01DX009 (ip), vehicle: saline with Tween-80
[9] = dose: 200.0 mg/kg/injection, schedule: Q01DX009 (ip), vehicle: saline with Tween-80
[10] = dose: 400.0 mg/kg/injection, schedule: Q01DX009 (ip), vehicle: saline
[11] = dose: 240.0 mg/kg/injection, schedule: Q01DX005 (ip), vehicle: Klucel (hydroxypropylcellulose) (HPC)
[12] = dose: 100.0 mg/kg/injection, schedule: Q04DX003 (ip), vehicle: Klucel (hydroxypropylcellulose) (HPC)
[13] = dose: 200.0 mg/kg/injection, schedule: Q04DX003 (ip), vehicle: Klucel (hydroxypropylcellulose) (HPC)
[14] = dose: 400.0 mg/kg/injection, schedule: Q04DX003 (ip), vehicle: Klucel (hydroxypropylcellulose) (HPC)
[15] = dose: 240.0 mg/kg/injection, schedule: Q01DX005 (ip), vehicle: saline with Tween-80

## CC1S(=O)(=O)OCCCOS1(=O)=O
[1]
  T/C: 133 % of control
dose: 25.0 mg/kg/injection, schedule: Q01DX005 (ip), vehicle: Klucel (hydroxypropylcellulose) (HPC)
  T/C: 144 % of control [5 of 6 alive]
[2]
  survivor count: 0 of 6 and 2 of 6
[3]
  survivor count: 0 of 6

## Nc1nc2ncc([N+](=O)[O-])cc2c(=O)[nH]1
[4]
  survivor count: 3 of 5

## NCCNCC[OH2+].NCCNCC[OH2+].O=[N+]([O-])[O-].[Cu+2]
dose: 50.0 mg/kg/injection, schedule: Q04DX003 (ip), vehicle: saline
  survivor count: 2 of 6

## COc1cccc(C(=O)OCCC(C)C)c1O
dose: 50.0 mg/kg/injection, schedule: Q01DX009 (ip), vehicle: saline
  survivor count: 5 of 6

## CC1(C)C(=O)N2C(=O)CC(=O)N2C1=O
[5]
  survivor count: 6 of 6

## CCC/C=C/C=C/C(=O)OC1/C(=C/C(=O)OC)CC2CC(C(C)O)OC(=O)CC(O)CC3CC(OC(C)=O)C(C)(C)C(O)(CC4C/C(=C/C(=O)OC)CC(/C=C/C(C)(C)C1(O)O2)O4)O3 (configuration not stated)
dose: 0.31 mg/kg/injection, schedule: Q01DX009 (ip), vehicle: saline + alcohol
  survivor count: 0 of 4
dose: 0.62 mg/kg/injection, schedule: Q01DX009 (ip), vehicle: saline + alcohol
  survivor count: 0 of 4
dose: 1.25 mg/kg/injection, schedule: Q01DX009 (ip), vehicle: saline + alcohol
  survivor count: 0 of 4
dose: 2.5 mg/kg/injection, schedule: Q01DX009 (ip), vehicle: saline + alcohol
  survivor count: 0 of 4
dose: 5.0 mg/kg/injection, schedule: Q01DX009 (ip), vehicle: saline + alcohol
  survivor count: 0 of 4
dose: 150.0 micrograms/kg/injection, schedule: Q01DX009 (ip), vehicle: saline + alcohol
  survivor count: 2 of 5
dose: 300.0 micrograms/kg/injection, schedule: Q01DX009 (ip), vehicle: saline + alcohol
  survivor count: 0 of 5

## O=C1OC(OC2OC(=O)C(Cl)=C2Cl)C(Cl)=C1Cl (configuration not stated)
[6]
  T/C: 125 % of control
  survivor count: 0 of 5 and 0 of 6
[7]
  survivor count: 0 of 5 and 0 of 6
[4]
  survivor count: 0 of 5

## O=C(Nc1ccccc1)Oc1cccc(/C=N/Sc2ccccc2)c1
[8]
  survivor count: 6 of 6
[9]
  survivor count: 6 of 6

## N=C(N)Sc1ccccn1
dose: 100.0 mg/kg/injection, schedule: Q01DX009 (ip), vehicle: saline
  T/C: 145 % of control
dose: 200.0 mg/kg/injection, schedule: Q01DX009 (ip), vehicle: saline
  survivor count: 2 of 6
[10]
  T/C: 128 % of control
  survivor count: 0 of 6

## CN1CCC(O)(c2nccc3ccccc23)CC1
dose: 200.0 mg/kg/injection, schedule: Q01DX001 (ip), vehicle: Klucel (hydroxypropylcellulose) (HPC)
  survivor count: 0 of 6

## Nc1nnc(SCCCCCCSc2nnc(N)s2)s1
[4]
  survivor count: 6 of 6

## CCN=c1cc2oc3cc(NCC)c(C)cc3c(-c3ccccc3C(=O)OCC)c-2cc1C
dose: 3.12 mg/kg/injection, schedule: Q01DX005 (ip), vehicle: saline with Tween-80
  survivor count: 3 of 5
dose: 6.25 mg/kg/injection, schedule: Q01DX005 (ip), vehicle: saline with Tween-80
  survivor count: 1 of 5
dose: 12.5 mg/kg/injection, schedule: Q01DX005 (ip), vehicle: saline with Tween-80
  survivor count: 0 of 5
[6]
  survivor count: 0 of 5
[7]
  survivor count: 0 of 5
[4]
  survivor count: 0 of 5

## [CH3][Ga]([CH3])[n]1cccn1
[1]
  survivor count: 0 of 6
[2]
  survivor count: 0 of 6
[3]
  survivor count: 0 of 6
dose: 200.0 mg/kg/injection, schedule: Q01DX005 (ip), vehicle: Klucel (hydroxypropylcellulose) (HPC)
  survivor count: 0 of 6

## C1O[C@@H]1[C@H]1CO1
dose: 16.5 mg/kg/injection, schedule: Q01DX009 (ip), vehicle: saline
  T/C: 142 % of control
dose: 25.0 mg/kg/injection, schedule: Q01DX009 (ip), vehicle: saline
  T/C: 145 % of control
dose: 37.5 mg/kg/injection, schedule: Q01DX009 (ip), vehicle: saline
  survivor count: 3 of 6

## COc1ccc(-n2cnc3c(cnn3CN3CCCCC3)c2=O)cc1
[11]
  survivor count: 0 of 6

## O=P(CCC(O)c1ccccc1)(c1ccccc1)c1ccccc1 (configuration not stated)
dose: 100.0 mg/kg/injection, schedule: Q01DX009 (ip), vehicle: saline sonified
  survivor count: 4 of 6

## CCC1CN2CCc3cc(OC)c(OC)cc3C2CC1Cl (configuration not stated)
[8]
  survivor count: 3 of 6
[9]
  survivor count: 0 of 6

## Cc1ccc2c[n+]3ccccc3c(-c3ccccc3)c2c1
dose: 6.25 mg/kg/injection, schedule: Q04DX003 (ip), vehicle: Klucel (hydroxypropylcellulose) (HPC)
  survivor count: 5 of 5
dose: 12.5 mg/kg/injection, schedule: Q04DX003 (ip), vehicle: Klucel (hydroxypropylcellulose) (HPC)
  survivor count: 0 of 5
dose: 25.0 mg/kg/injection, schedule: Q04DX003 (ip), vehicle: Klucel (hydroxypropylcellulose) (HPC)
  survivor count: 1 of 5
dose: 50.0 mg/kg/injection, schedule: Q04DX003 (ip), vehicle: Klucel (hydroxypropylcellulose) (HPC)
  survivor count: 0 of 5
[12]
  survivor count: 0 of 5
[13]
  survivor count: 0 of 5
[14]
  survivor count: 0 of 5

## O=C(Nc1ccc(Cl)cc1)Nc1nnc(-c2ccc(F)cc2)o1
[5]
  survivor count: 6 of 6
dose: 120.0 mg/kg/injection, schedule: Q01DX005 (ip), vehicle: saline with Tween-80
  survivor count: 6 of 6
[15]
  survivor count: 6 of 6

## Cc1ccc(C(C)(C)C[P+](C)(c2ccccc2)c2ccccc2)cc1
dose: 50.0 mg/kg/injection, schedule: Q01DX009 (ip), vehicle: Klucel (hydroxypropylcellulose) (HPC)
  survivor count: 6 of 6

## Cc1ccc(OP(=O)(Oc2ccc(C)cc2)Oc2ccc(C)cc2)cc1.Cc1ccc(OP(=O)(Oc2ccc(C)cc2)Oc2ccc(C)cc2)cc1.[Cl][Cu][Cl]
[12]
  survivor count: 6 of 6
[13]
  survivor count: 1 of 6
[14]
  survivor count: 0 of 6

## O=C(O)c1cc(-c2ccc(Cl)cc2)nc2cc(Cl)ccc12
[4]
  survivor count: 0 of 6

## COc1ccc(C2CC(C)(O)Oc3cc4c(cc32)OCO4)cc1 (configuration not stated)
[11]
  survivor count: 6 of 6

## O=[N+]([O-])c1ccc(/C=N/O)s1
dose: 100.0 mg/kg/injection, schedule: Q01DX009 (ip), vehicle: Klucel (hydroxypropylcellulose) (HPC)
  survivor count: 0 of 6

## CC(=O)c1c[nH]c(=O)c2cc3c(cc12)OCO3
[15]
  survivor count: 6 of 6
